The results in this text go back to the supplement of paper PMC12462457.

In the test the test system is OVCAR8. Nature of the test: cell count relative to DMSO vehicle (fold change); higher = more surviving senescent cells (less killing). As to conditions: senescence inducer: cisplatin 10 µM 48 h, then 6 d recovery (CP senescent), exposure time 24 h.

Structures can show the parent of a compound that is named as a salt. ± gives the standard deviation of the averaged measurements. Some of the results follow. This data set is noisy: repeats of one test often differ as much as different tests do.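 Imaging of DAPI-stained nuclei was used to count cells; those without phalloidin-stained cytoplasm were treated as dead and excluded. Every well's count was divided by the median of same-plate vehicle wells, then averaged across two replicate plates.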

As to `CC(C)=CC(=O)O[C@H]1Cc2cc3ccc(=O)oc3cc2OC1(C)C` [Decursin], the cell count by setting is: (compound dose 1 µM) 0.745 ± 0.0078; (compound dose 5 µM) 0.456 ± 0.15.

For the compound `CCC[C@H](Nc1nc(-c2ccc(NC(=O)NCC)c(OC)c2)ncc1C)c1cccnc1` [Lexibulin], the cell count was 0.587 ± 0.0064 (compound dose 1 µM) and 0.776 ± 0.1 (compound dose 5 µM).

On to `COc1cc2ncc(-c3ccccc3)nc2cc1OC` [Tyrphostin AG 1296], for which the cell count turned out to be 1.05 ± 0.047 (compound dose 1 µM) and 1.11 ± 0.12 (compound dose 5 µM).

In the case of `O=c1cc(N2CCNCC2)oc2c(-c3ccccc3)cccc12`, the cell count runs as follows: (compound dose 1 µM) 1 ± 0.15; (compound dose 5 µM) 1.02 ± 0.12.

With `COc1cc(Nc2ncc(F)c(Nc3ccc4c(n3)NC(=O)C(C)(C)O4)n2)cc(OC)c1OC`, the cell count amounted to 0.786 ± 0.057 (compound dose 1 µM) and 0.348 ± 0.049 (compound dose 5 µM).

Regarding `COc1cc(Nc2ncc(F)c(Nc3ccc4c(n3)NC(=O)C(C)(C)O4)n2)cc(OC)c1OC` [R406 (free base)], the cell count stood at 0.944 ± 0.093 (compound dose 1 µM) and 0.689 ± 0.095 (compound dose 5 µM).

`Cn1cc(-n2cnc3c(NCc4nc5cc(Cl)c(Cl)cc5[nH]4)nc(N4CCOCC4)nc32)cn1`: the cell count runs as follows: (compound dose 1 µM) 0.59 ± 0.0064; (compound dose 5 µM) 0.743 ± 0.019.

With `Cc1ccc(NC(=O)c2ccc(CN3CC[C@H](N(C)C)C3)c(C(F)(F)F)c2)cc1Nc1nccc(-c2cncnc2)n1` [Bafetinib], the cell count is, setting by setting: (compound dose 1 µM) 1.097 ± 0.0085; (compound dose 5 µM) 0.961 ± 0.056.

As for `CC1(C)CCC(CN2CCN(c3ccc(C(=O)NS(=O)(=O)c4ccc(NCC5CCOCC5)c([N+](=O)[O-])c4)c(Oc4cnc5[nH]ccc5c4)c3)CC2)=C(c2ccc(Cl)cc2)C1` [Venetoclax], the cell count (compound dose 1 µM) came out at 1.04 ± 0.13 and the cell count (compound dose 5 µM) was 0.757 ± 0.016.

As to `CCCCCCCCCCC[C@@H](C[C@@H]1OC(=O)[C@H]1CCCCCC)OC(=O)[C@H](CC(C)C)NC=O` [Orlistat], the cell count is 1.04 ± 0.053 (compound dose 1 µM) and 0.957 ± 0.035 (compound dose 5 µM).

Turning to `CS(=O)(=O)c1cccc(CNc2nc(Nc3ccc4c(c3)CCC(=O)N4)ncc2C(F)(F)F)c1`, the cell count reads like this: (compound dose 1 µM) 1.01 ± 0.23; (compound dose 5 µM) 0.611 ± 0.47.

As to `CC[C@H](CC[C@@H](C)[C@H]1CC[C@H]2[C@@H]3CC=C4C[C@@H](O)CC[C@]4(C)[C@H]3CC[C@]12C)C(C)C` [beta-SITOSTEROL], the cell count is, setting by setting: (compound dose 1 µM) 0.994 ± 0.077; (compound dose 5 µM) 1.08 ± 0.071.

In the case of `COc1ccc(CCNCc2ccc(OCc3ccc(Cl)nc3)c(OC)c2)cc1OC` [SBE13 (Hydrochloride)], the cell count reads like this: (compound dose 1 µM) 0.918 ± 0.03; (compound dose 5 µM) 0.989 ± 0.033.

Consider `CC(C)(C)c1cc(C(c2cc3c(cc2O)OCO3)N2CCOCC2)cc(C(C)(C)C)c1O` (stereo unspecified), for which the cell count (compound dose 1 µM) turned out to be 0.915 ± 0.27 and the cell count (compound dose 5 µM) was found to be 0.047 ± 0.05.

`O=c1ccc2ccc(O)c(O)c2o1` [Daphnetin] gave a cell count (compound dose 1 µM) of 0.745 ± 0.0014 and a cell count (compound dose 5 µM) of 0.503 ± 0.28.

For `O=C(Nc1cccnc1)c1cccs1`, the cell count reads like this: (compound dose 1 µM) 0.88 ± 0.074; (compound dose 5 µM) 0.763 ± 0.21.

As for `c1ccc2nc3ccccc3nc2c1` [Phenazine (methylsulfate)], the cell count is, setting by setting: (compound dose 1 µM) 0.726 ± 0.24; (compound dose 5 µM) 0.394 ± 0.45.

Regarding `CS(=O)(=O)CCNCc1ccc(-c2ccc3ncnc(Nc4ccc(OCc5cccc(F)c5)c(Cl)c4)c3c2)o1`, the cell count runs as follows: (compound dose 1 µM) 0.521 ± 0.061; (compound dose 5 µM) 0.379 ± 0.02.

`CS(=O)(=O)CCNCc1ccc(-c2ccc3ncnc(Nc4ccc(OCc5cccc(F)c5)c(Cl)c4)c3c2)o1` [Lapatinib]: the cell count by setting is: (compound dose 1 µM) 0.977 ± 0.14; (compound dose 5 µM) 0.573 ± 0.27.

As to `Cn1cc(CC(N)C(=O)O)c2ccccc21` (racemic) [(Rac)-Indoximod], the cell count (compound dose 1 µM) amounted to 1.48 ± 0.087 and the cell count (compound dose 5 µM) was 1.53 ± 0.1.

`O=c1[nH]c(=O)n([C@H]2C[C@H](O)[C@@H](CO)O2)cc1C(F)(F)F`: the cell count (compound dose 1 µM) is 1.19 ± 0.064 and the cell count (compound dose 5 µM) is 0.969 ± 0.25.

The compound `COC(=O)c1ccc(O)c(O)c1` [Methyl 3,4-dihydroxybenzoate] yielded a cell count (compound dose 1 µM) of 1.02 ± 0.042 and a cell count (compound dose 5 µM) of 1.06 ± 0.096.

Consider `COc1ccc2c3c1O[C@H]1C[C@@H](O)C=C[C@@]31CCN(C)C2` [Galanthamine], for which the cell count reads like this: (compound dose 1 µM) 0.794 ± 0.099; (compound dose 5 µM) 0.892 ± 0.047.

As to `O=C(NNc1ccccc1)c1ccncc1` [PluriSIn 1], the cell count worked out at 1.3 ± 0.23 (compound dose 1 µM) and 1.21 ± 0.22 (compound dose 5 µM).

For the compound `COc1cc(OC)cc(N2CCN(C(=O)Nc3nc4cc(F)ccc4nc3OC)CC2)c1` [Supinoxin], the cell count by setting is: (compound dose 1 µM) 0.588 ± 0.13; (compound dose 5 µM) 0.666 ± 0.014.

As to `COc1cc2c(cc1OC)[C@@H]1C(=O)c3ccc4c(c3O[C@@H]1CO2)C=CC(C)(C)O4` [Deguelin], the cell count was 1.18 ± 0.14 (compound dose 1 µM) and 0.899 ± 0.19 (compound dose 5 µM).

With `C=C1CCC[C@]2(C)C[C@@H]3OC(=O)C(C)=C3C[C@@H]12` [Atractylenolide II], the cell count is 1.05 ± 0.1 (compound dose 1 µM) and 0.644 ± 0.24 (compound dose 5 µM).

On to `C=C(C)[C@@H]1CC[C@]2(C)CC[C@]3(C)[C@H](CC[C@@H]4[C@@]5(C)CC[C@H](O)C(C)(C)[C@@H]5CC[C@]43C)[C@@H]12`, for which the cell count is, setting by setting: (compound dose 1 µM) 1.03 ± 0.079; (compound dose 5 µM) 0.619 ± 0.44.

On to `CN(C)C(=O)c1cc2cnc(Nc3ccc(NC(=O)CCCCCCCN=C=S)cc3)nc2n1C1CCCC1`, for which the cell count was determined as 0.897 ± 0.066 (compound dose 1 µM) and 0.35 ± 0.099 (compound dose 5 µM).

Turning to `O=C1Nc2ccc(I)cc2/C1=C/c1cc(Br)c(O)c(Br)c1`, the cell count amounted to 0.772 ± 0.41 (compound dose 1 µM) and 1.13 ± 0.076 (compound dose 5 µM).

On to `CON(C)C(=O)N1N=C(c2cc(F)ccc2F)S[C@@]1(CCCN)c1ccccc1` [Filanesib], for which the cell count is, setting by setting: (compound dose 1 µM) 1.11 ± 0.19; (compound dose 5 µM) 1.09 ± 0.056.

Regarding `COC(=O)[C@]12OC[C@]34[C@H]([C@@H](O)[C@@H]1O)[C@@]1(C)CC(=O)C(O)=C(C)[C@@H]1C[C@H]3OC(=O)[C@H](OC(=O)C=C(C)C)[C@@H]24` [Brusatol], the cell count worked out at 0.631 ± 0.035 (compound dose 1 µM) and 0.332 ± 0.017 (compound dose 5 µM).

As for `NC(=O)N1c2ccccc2CC(=O)c2ccccc21`, the cell count stood at 1.13 ± 0.17 (compound dose 1 µM) and 1.12 ± 0.35 (compound dose 5 µM).
